Patent US8372842B2, “Pyrazolopyridines as kinase inhibitors” (Array BioPharma Inc., priority 2008, dated 2013)
Structures can show the parent of a compound that is named as a salt. Some of these results come from one statement about several compounds together.

target: T1, human CHK1 kinase domain, amino acids 1 to 273 (Homo sapiens, UniProt O14757); test: CHK1 Enzymatic Assay; format: biochemical; conditions: 0.5 nM CHK1 enzyme, Omnia peptide S/T11 substrate, room temperature
T1 construct: human CHK1 kinase domain, amino acids 1 to 273; 10xHis (C); made in house
T1 sequence (O14757 1-273): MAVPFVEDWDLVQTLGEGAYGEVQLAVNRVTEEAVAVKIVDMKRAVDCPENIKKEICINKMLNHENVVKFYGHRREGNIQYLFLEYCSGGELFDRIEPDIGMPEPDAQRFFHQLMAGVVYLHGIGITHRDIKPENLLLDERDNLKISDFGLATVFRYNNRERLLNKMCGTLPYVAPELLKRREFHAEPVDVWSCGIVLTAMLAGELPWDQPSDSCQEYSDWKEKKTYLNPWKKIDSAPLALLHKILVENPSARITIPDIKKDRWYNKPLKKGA

IC50, < 10 µM:
O=C(C[C@@H]1CCCN1)N1CCN(c2c(C3CC3)cnc3[nH]ncc23)CC1 [Example 23, (S)-1-(4-(5-cyclopropyl-1H-pyrazolo[3,4-b]pyridin-4-yl)piperazin-1-yl)-2-(pyrrolidin-2-yl)ethanone hydrochloride]
CC(C)NC[C@@H](C(=O)N1CCN(c2c(Oc3cccc(F)c3)cnc3[nH]ncc23)CC1)c1ccc(Cl)cc1 [Example 14, (S)-2-(4-chlorophenyl)-1-(4-(5-(3-fluorophenoxy)-1H-pyrazolo[3,4-b]pyridin-4-yl)piperazin-1-yl)-3-(isopropylamino)propan-1-one]
O=C(C[C@@H]1CCCN1)N1CCN(c2c(-c3ccccc3)cnc3[nH]nc(/C=C/c4cccnc4)c23)CC1 [Example 29, (S,E)-1-(4-(5-phenyl-3-(2-(pyridin-3-yl)vinyl)-1H-pyrazolo[3,4-b]pyridin-4-yl)piperazin-1-yl)-2-(pyrrolidin-2-yl)ethanone hydrochloride]
O=C(C[C@@H]1CCCN1)N1CCN(c2c(C3CC3)cnc3[nH]nc(I)c23)CC1 [Example 25, (S)-1-(4-(5-cyclopropyl-3-iodo-1H-pyrazolo[3,4-b]pyridin-4-yl)piperazin-1-yl)-2-(pyrrolidin-2-yl)ethanone hydrochloride]
CC(C)NC[C@@H](C(=O)N1CCN(c2ccnc3[nH]nc(OCCO)c23)CC1)c1ccc(Cl)cc1 [Example 5, (S)-2-(4-chlorophenyl)-1-(4-(3-(2-hydroxyethoxy)-1H-pyrazolo[3,4-b]pyridin-4-yl)piperazin-1-yl)-3-(isopropylamino)propan-1-one]
O=C([C@@H](c1ccc(Cl)cc1)[C@@H]1CCCN1)N1CCN(c2c(-c3ccccc3)cnc3[nH]nc(OC[C@@H](O)CO)c23)CC1 [Example 17, (S)-2-(4-chlorophenyl)-1-(4-(3-((S)-2,3-dihydroxypropoxy)-5-phenyl-1H-pyrazolo[3,4-b]pyridin-4-yl)piperazin-1-yl)-2-((S)-pyrrolidin-2-yl)ethanone]
CC(C)NC[C@@H](C(=O)N1CCN(c2c(-c3ccccc3)cnc3[nH]ncc23)CC1)c1ccc(Cl)cc1 [Example 1, (S)-2-(4-chlorophenyl)-3-(isopropylamino)-1-(4-(5-phenyl-1H-pyrazolo[3,4-b]pyridin-4-yl)piperazin-1-yl)propan-1-one]
COc1n[nH]c2ncc(-c3ccccc3)c(N3CCN(C(=O)[C@H](CNC(C)C)c4ccc(Cl)cc4)CC3)c12 [Example 9, (S)-2-(4-chlorophenyl)-3-(isopropylamino)-1-(4-(3-methoxy-5-phenyl-1H-pyrazolo[3,4-b]pyridin-4-yl)piperazin-1-yl)propan-1-one]
